The list shows a part of the results. Residues, ends and D or L forms follow the SMILES beside them. *: point of attachment. Cbz = O=C(OCc1ccccc1)*
Experiments:
Assay in all cases: log2 fold change, soluble protein after heating vs DMSO (PISA); higher = thermal stabilisation; K562 cells, 10 uM, 30 min; active = over 0.2 and 3.5 SD of the protein, either way, in both replicates (recomputed)
erlotinib = compound: C#Cc1cccc(Nc2ncnc3cc(OCCOC)c(OCCOC)cc23)c1 [erlotinib]
Summary of the method: (§1)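 Values are thermal stability changes relative to control samples and are taken from duplicates. They are stated as log2 fold changes. Before quantification by TMTpro 16plex LC-MS/MS with equalised channel sums, K562 cells at 2×10^6 cells/mL were treated with 10 μM compound for 30 min, heated in aliquots for 3 min across 48°C-58°C, pooled, extracted in PBS with 0.5% NP-40 at 4°C, and centrifuged at 21,000xg for 90 min to give the soluble supernatant.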

Protein sequences, listed by entry. Tags and fused reporters are not part of them. Lines headed by an entry give the natural chain unless they say otherwise; changes in a name come on top.
UniProt Q15424: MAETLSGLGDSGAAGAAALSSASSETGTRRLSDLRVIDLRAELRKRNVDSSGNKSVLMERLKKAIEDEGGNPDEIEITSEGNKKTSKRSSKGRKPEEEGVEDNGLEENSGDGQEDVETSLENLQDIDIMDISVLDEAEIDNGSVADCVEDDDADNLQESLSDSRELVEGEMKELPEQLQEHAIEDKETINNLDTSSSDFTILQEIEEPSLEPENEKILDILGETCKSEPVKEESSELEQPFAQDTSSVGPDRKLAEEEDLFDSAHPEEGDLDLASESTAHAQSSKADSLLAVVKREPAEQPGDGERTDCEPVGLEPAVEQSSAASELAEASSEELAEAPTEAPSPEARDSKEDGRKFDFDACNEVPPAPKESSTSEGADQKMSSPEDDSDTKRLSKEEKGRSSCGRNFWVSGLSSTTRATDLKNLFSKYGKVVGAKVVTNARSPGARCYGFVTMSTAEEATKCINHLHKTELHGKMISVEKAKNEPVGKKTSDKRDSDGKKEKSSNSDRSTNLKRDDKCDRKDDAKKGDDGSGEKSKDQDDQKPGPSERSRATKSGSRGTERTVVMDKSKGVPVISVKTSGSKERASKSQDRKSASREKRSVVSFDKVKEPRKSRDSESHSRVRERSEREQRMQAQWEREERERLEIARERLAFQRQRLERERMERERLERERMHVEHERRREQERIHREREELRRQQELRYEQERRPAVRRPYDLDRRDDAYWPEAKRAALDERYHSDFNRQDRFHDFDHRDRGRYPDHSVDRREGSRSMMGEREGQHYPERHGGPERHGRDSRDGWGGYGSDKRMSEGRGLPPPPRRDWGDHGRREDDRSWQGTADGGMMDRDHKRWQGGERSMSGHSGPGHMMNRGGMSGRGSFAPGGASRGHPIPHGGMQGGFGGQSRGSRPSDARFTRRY
UniProt Q96KG9: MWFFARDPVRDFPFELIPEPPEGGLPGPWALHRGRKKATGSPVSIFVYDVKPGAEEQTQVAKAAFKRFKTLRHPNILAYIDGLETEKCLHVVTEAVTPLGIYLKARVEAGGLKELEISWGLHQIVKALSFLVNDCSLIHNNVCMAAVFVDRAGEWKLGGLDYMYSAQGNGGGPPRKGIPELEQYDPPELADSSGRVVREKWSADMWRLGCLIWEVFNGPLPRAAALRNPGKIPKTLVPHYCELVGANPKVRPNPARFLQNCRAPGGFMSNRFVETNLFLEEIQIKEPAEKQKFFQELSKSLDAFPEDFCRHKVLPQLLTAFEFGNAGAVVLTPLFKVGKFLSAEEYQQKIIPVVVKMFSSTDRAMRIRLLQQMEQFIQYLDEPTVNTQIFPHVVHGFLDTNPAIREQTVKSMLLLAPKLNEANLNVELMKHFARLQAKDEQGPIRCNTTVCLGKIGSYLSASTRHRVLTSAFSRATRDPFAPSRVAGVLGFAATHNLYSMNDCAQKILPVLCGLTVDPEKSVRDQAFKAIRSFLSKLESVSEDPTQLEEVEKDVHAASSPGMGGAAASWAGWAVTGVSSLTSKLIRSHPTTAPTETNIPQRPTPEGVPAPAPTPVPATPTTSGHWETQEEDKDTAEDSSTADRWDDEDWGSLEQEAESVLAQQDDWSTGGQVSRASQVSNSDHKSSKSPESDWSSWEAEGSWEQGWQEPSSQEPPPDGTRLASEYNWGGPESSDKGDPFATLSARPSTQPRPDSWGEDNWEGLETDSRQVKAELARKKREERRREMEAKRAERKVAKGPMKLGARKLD
UniProt Q9Y3A4: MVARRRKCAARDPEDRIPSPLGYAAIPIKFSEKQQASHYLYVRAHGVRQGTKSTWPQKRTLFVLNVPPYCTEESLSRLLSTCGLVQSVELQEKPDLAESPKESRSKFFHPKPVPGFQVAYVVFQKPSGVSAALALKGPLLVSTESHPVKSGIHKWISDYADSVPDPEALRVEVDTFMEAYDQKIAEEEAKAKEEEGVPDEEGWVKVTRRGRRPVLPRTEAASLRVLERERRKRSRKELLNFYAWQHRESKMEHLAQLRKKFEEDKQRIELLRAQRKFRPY
UniProt Q15437: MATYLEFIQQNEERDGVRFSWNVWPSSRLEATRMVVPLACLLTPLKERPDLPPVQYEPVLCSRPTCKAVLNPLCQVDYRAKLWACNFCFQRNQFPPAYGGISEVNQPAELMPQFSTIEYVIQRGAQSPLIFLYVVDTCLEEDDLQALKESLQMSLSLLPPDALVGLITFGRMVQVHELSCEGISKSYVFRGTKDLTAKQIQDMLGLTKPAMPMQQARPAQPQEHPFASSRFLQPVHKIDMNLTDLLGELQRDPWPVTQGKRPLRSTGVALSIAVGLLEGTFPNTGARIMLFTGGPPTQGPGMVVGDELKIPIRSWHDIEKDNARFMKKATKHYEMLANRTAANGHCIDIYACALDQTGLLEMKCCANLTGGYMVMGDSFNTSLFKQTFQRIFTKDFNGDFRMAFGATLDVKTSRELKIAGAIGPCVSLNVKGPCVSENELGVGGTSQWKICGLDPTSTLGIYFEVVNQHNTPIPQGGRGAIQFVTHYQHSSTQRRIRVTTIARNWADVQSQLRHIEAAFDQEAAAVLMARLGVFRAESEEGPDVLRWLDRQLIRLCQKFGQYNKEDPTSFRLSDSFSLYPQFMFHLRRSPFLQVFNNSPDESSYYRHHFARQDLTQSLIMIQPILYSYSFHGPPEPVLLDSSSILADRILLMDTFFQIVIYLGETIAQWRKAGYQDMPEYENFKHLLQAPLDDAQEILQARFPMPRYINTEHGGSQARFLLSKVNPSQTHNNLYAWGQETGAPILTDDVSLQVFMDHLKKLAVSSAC
UniProt Q9HCN8: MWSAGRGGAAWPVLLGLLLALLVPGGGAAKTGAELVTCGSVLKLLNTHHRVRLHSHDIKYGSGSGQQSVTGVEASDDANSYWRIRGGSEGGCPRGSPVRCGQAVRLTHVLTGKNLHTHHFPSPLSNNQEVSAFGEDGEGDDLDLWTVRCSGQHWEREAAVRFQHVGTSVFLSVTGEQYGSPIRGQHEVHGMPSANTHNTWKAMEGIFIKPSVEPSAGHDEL
UniProt Q6P3W7: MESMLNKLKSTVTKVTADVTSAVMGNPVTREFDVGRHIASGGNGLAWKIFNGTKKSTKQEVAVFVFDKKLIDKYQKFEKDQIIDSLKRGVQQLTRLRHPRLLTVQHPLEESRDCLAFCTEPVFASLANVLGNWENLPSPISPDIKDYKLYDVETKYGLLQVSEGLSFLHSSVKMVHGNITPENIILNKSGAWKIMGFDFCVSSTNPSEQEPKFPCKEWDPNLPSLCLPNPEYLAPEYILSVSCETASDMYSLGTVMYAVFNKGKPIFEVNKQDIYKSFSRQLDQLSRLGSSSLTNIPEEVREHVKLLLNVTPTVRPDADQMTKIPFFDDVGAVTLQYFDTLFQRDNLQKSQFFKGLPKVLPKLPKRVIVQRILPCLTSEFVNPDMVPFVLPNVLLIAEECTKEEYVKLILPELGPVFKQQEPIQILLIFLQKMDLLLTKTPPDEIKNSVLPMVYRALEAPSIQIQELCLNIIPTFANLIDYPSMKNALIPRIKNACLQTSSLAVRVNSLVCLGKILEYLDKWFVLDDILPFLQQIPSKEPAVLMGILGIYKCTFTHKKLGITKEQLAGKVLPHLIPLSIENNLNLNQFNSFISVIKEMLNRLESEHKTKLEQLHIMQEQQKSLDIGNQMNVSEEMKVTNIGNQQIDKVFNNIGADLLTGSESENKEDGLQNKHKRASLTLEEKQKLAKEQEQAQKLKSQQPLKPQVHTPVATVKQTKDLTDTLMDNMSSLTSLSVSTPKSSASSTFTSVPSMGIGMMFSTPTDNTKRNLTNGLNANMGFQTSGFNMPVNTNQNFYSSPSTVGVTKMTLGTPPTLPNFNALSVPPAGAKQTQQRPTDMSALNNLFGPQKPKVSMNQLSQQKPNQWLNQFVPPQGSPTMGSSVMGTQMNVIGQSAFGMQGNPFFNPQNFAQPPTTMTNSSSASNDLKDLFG
UniProt Q9UHR5: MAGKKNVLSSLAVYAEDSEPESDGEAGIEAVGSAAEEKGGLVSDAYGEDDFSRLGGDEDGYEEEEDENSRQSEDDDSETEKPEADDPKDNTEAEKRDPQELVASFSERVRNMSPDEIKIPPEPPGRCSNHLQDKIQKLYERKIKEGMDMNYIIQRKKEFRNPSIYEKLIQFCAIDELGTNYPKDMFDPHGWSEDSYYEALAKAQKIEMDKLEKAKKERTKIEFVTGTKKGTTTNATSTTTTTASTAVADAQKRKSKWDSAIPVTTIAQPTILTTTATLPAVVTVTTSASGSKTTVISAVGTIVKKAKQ
UniProt Q9BY50: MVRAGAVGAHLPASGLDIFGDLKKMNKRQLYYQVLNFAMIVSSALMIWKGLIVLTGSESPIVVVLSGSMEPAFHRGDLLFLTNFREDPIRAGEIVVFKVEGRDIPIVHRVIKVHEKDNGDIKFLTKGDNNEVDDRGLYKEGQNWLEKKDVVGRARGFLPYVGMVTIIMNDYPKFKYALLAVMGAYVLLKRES
UniProt Q12770: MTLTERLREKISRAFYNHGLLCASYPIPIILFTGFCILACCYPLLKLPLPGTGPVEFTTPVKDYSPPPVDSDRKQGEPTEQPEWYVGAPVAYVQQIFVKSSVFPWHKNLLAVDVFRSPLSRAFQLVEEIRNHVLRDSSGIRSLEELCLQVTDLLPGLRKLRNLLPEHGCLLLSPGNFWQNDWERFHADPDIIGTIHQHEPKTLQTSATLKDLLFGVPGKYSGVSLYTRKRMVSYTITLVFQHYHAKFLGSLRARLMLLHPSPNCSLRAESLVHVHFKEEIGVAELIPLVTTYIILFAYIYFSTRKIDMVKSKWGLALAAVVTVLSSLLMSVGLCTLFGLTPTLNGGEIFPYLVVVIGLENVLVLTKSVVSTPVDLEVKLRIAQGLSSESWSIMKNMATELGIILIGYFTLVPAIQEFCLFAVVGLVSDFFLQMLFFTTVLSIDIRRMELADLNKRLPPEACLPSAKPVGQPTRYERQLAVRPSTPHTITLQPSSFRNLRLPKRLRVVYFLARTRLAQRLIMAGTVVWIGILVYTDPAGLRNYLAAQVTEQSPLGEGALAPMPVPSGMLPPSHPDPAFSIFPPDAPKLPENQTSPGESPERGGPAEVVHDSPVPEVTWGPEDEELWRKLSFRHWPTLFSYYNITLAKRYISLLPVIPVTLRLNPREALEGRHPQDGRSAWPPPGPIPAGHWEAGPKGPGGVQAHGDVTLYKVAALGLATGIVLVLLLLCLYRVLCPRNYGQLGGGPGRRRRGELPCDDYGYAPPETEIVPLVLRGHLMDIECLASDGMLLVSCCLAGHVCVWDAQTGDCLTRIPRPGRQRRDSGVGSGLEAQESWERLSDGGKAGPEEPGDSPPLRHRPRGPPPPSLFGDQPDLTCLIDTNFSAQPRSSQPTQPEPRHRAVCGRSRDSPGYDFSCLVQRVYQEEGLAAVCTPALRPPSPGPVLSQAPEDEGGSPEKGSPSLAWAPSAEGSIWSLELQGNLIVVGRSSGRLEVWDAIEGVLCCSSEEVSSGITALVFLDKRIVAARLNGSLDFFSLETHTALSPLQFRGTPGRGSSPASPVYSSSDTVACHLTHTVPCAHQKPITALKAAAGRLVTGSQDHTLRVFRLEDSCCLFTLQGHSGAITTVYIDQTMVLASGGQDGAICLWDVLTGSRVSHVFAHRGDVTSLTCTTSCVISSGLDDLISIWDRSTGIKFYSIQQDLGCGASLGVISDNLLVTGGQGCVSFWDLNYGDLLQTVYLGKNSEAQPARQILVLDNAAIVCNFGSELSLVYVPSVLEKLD
UniProt Q9Y3B9: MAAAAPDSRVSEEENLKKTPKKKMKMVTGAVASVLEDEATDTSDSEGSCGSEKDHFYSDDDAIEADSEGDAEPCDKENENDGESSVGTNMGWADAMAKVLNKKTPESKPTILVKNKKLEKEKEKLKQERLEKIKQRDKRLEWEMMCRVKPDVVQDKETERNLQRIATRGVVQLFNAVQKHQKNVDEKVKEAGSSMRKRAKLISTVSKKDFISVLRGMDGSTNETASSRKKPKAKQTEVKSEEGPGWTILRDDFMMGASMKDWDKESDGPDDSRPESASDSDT
UniProt Q8N488: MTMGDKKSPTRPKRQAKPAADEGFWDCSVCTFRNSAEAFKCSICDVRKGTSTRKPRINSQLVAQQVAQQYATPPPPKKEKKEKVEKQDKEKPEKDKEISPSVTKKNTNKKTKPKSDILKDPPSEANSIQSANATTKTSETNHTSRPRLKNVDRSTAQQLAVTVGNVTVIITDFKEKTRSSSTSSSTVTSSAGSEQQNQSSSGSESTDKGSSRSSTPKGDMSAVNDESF
UniProt Q96GA7: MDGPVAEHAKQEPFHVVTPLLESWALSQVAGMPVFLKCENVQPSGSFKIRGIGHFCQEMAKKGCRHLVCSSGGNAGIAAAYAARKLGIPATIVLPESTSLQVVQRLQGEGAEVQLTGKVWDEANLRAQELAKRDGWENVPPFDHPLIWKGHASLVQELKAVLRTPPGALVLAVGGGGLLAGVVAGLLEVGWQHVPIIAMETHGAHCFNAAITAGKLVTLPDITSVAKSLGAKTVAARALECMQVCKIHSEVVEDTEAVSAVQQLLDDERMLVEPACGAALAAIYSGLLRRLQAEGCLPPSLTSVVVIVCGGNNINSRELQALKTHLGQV

[1] = compound: C/C(=N\NC(=O)C1=CC(=CC=C1)S(=O)(=O)N2CCOCC2)/C3=C(C=CC(=C3)Cl)O
Summary of the method: as §1

[2] = compound: C1=CC(=C(C=C1Cl)C2=NC3=NC=CN=C3C(=N2)NC4=CC=NC=C4)F
Summary of the method: as §1

[3] = compound: C1=CC(=CC=C1C2=NC3=C(N2)C=C(C=C3)C(=O)N)OC4=CC=C(C=C4)Cl
Summary of the method: as §1

[4] = compound: C1=CC2=C(C=CC(=C2)/C=C\3/C(=O)NC(=NCC4=CC=CS4)S3)N=C1
Summary of the method: as §1

[5] = compound: C1=CC2=NC=CN=C2C=C1/C=C/3\C(=O)NC(=O)S3
Summary of the method: as §1

[6] = compound: C1=CC=C(C=C1)C2=NC(=C(N2)C3=CC=NC=C3)C4=CC(=C(C=C4)Cl)O
Summary of the method: as §1

[7] = compound: C1=CC=C2C(=C1)C3=NNC4=CC=CC(=C43)C2=O
Summary of the method: as §1

[8] = compound: C1CCN(C1)C(=O)NC2=CC=CC(=C2)NC3=NC=C(C(=N3)NCCC4=CN=CN4)Br
Summary of the method: as §1

[9] = compound: C1CN(CCC1(CC2=CC=C(C=C2)Cl)N)C3=NC=NC4=C3C=CN4
Summary of the method: as §1

IRAK-1-4 Inhibitor I = compound: C1COCCN1CCN2C3=CC=CC=C3N=C2NC(=O)C4=CC(=CC=C4)[N+](=O)[O-] [IRAK-1-4 Inhibitor I]
Summary of the method: as §1

ibrutinib = compound: C=CC(=O)N1CCC[C@@H](n2nc(-c3ccc(Oc4ccccc4)cc3)c3c(N)ncnc32)C1 [ibrutinib]
Summary of the method: as §1

[10] = compound: CC(=O)c1cnc2ccc(-c3cc(Cl)c(O)c(Cl)c3)nc2c1N[C@H]1CC[C@H](CN(C)C)CC1
Summary of the method: as §1

ralimetinib = compound: CC(C)(C)Cn1c(N)nc2ccc(-c3[nH]c(C(C)(C)C)nc3-c3ccc(F)cc3)nc21 [ralimetinib]
Summary of the method: as §1

[11] = compound: CC(C)(O)CC(=O)NCCn1ccc2ncnc(Nc3ccc(Oc4cccc(C(F)(F)F)c4)c(Cl)c3)c21
Summary of the method: as §1

[12] = compound: CC(C)C1=C2N=C(C=C(N2N=C1)NCC3=CC=CC=C3)NCCCCCCN
Summary of the method: as §1

[13] = compound: CC(C)C[C@@H](C=O)NC(=O)[C@H](CC(C)C)NC(=O)[C@H](CC(C)C)NC(=O)OCc1ccccc1
Summary of the method: as §1

pinometostat = compound: CC(C)N(C[C@H]1O[C@@H](n2cnc3c(N)ncnc32)[C@H](O)[C@@H]1O)[C@H]1C[C@@H](CCc2nc3cc(C(C)(C)C)ccc3[nH]2)C1 [pinometostat]
Summary of the method: as §1

[14] = compound: CC1=C(C(CC(=O)N1)C2=CC=C(C=C2)C(F)(F)F)C(=O)NC3=C(C=C4C(=C3)C=NN4)F
Summary of the method: as §1

[15] = compound: CC1=C(C2=C(C=C1)C(=O)C3=CC=CC=C3N2CCCN)C
Summary of the method: as §1

Measured: log2 fold change

SAFB isoform 3 (UniProt Q15424)
inactive: erlotinib -0.034 | [1] -0.144 | [2] -0.197 | [3] 0.038 | [4] -0.134 | [5] 0.044 | [6] -0.144 | [7] -0.033 | [8] 0.017 | [9] -0.173 | IRAK-1-4 Inhibitor I -0.073 | ibrutinib 0.015 | [10] 0.002 | ralimetinib 0.044 | [11] 0.156 | [12] 0.069 | [13] 0.118 | pinometostat 0.152 | [14] 0.002 | [15] -0.123

SCYL1 (UniProt Q96KG9)
inactive: erlotinib -0.016 | [1] 0.037 | [2] 0.048 | [3] 0.034 | [4] 0.001 | [5] 0.051 | [6] -0.011 | [7] -0.013 | [8] -0.024 | [9] 0.032 | IRAK-1-4 Inhibitor I -0.01 | ibrutinib -0.027 | [10] 0 | ralimetinib 0.012 | [11] -0.044 | [12] 0.112 | [13] 0.031 | pinometostat -0.02 | [14] 0.013 | [15] 0.015

RRP7A (UniProt Q9Y3A4)
inactive: erlotinib -0.075 | [1] 0.026 | [2] -0.101 | [3] 0.004 | [4] -0.176 | [5] -0.014 | [6] 0.038 | [7] 0.141 | [8] -0.068 | [9] -0.089 | IRAK-1-4 Inhibitor I -0.028 | ibrutinib -0.084 | [10] 0.005 | ralimetinib 0.051 | [11] 0.025 | [12] 0.008 | [13] 0.024 | pinometostat 0.083 | [14] 0.087 | [15] 0.021

SEC23B (UniProt Q15437)
inactive: erlotinib -0.013 | [1] 0.091 | [2] 0.018 | [3] -0.044 | [4] -0.002 | [5] 0.03 | [6] 0.046 | [7] -0.01 | [8] -0.016 | [9] 0.007 | IRAK-1-4 Inhibitor I -0.01 | ibrutinib 0.001 | [10] -0.014 | ralimetinib 0.022 | [11] -0.02 | [12] 0.01 | [13] -0.018 | pinometostat -0.031 | [14] 0.006 | [15] 0.016

SAMM50 (UniProt Q9Y512)
inactive: erlotinib 0 | [1] 0.009 | [2] 0.038 | [3] 0.003 | [4] -0.033 | [5] 0.026 | [6] 0.005 | [7] -0.026 | [8] 0.031 | [9] 0.062 | IRAK-1-4 Inhibitor I 0 | ibrutinib 0.02 | [10] 0.062 | ralimetinib -0.016 | [11] 0.065 | [12] -0.007 | [13] -0.019 | pinometostat -0.041 | [14] 0.012 | [15] -0.009

RTN3 isoform 5 (UniProt O95197)
inactive: erlotinib -0.096 | [1] 0.022 | [2] 0.059 | [3] 0.09 | [4] 0.132 | [5] -0.002 | [6] 0.124 | [7] -0.045 | [8] -0.14 | [9] 0.082 | IRAK-1-4 Inhibitor I 0.02 | ibrutinib -0.363 | [10] -0.159 | ralimetinib -0.013 | [11] -0.055 | [12] 0.001 | [13] -0.062 | pinometostat 0.001 | [14] -0.084 | [15] 0.056

SDF2L1 (UniProt Q9HCN8)
inactive: erlotinib -0.011 | [1] -0.042 | [2] -0.05 | [3] -0.011 | [4] -0.028 | [5] -0.015 | [6] -0.044 | [7] 0.003 | [8] 0.031 | [9] -0.032 | IRAK-1-4 Inhibitor I -0.017 | ibrutinib -0.02 | [10] 0.04 | ralimetinib 0.016 | [11] -0.002 | [12] 0.013 | [13] -0.005 | pinometostat -0.009 | [14] 0.035 | [15] 0.008

RTCB (UniProt Q9Y3I0)
inactive: erlotinib 0.014 | [1] -0.041 | [2] -0.021 | [3] 0.012 | [4] -0.014 | [5] -0.008 | [6] 0.032 | [7] -0.006 | [8] 0.012 | [9] -0.014 | IRAK-1-4 Inhibitor I 0.003 | ibrutinib -0.004 | [10] 0.026 | ralimetinib 0.019 | [11] 0.004 | [12] -0.059 | [13] -0.002 | pinometostat 0.056 | [14] -0.01 | [15] -0.052

SCYL2 (UniProt Q6P3W7)
inactive: erlotinib 0.014 | [1] 0.032 | [2] 0.072 | [3] -0.005 | [4] 0.02 | [5] 0.03 | [6] -0.013 | [7] 0.029 | [8] -0.003 | [9] -0.003 | IRAK-1-4 Inhibitor I 0.003 | ibrutinib -0.021 | [10] -0.02 | ralimetinib -0.031 | [11] -0.029 | [12] -0.008 | [13] 0.004 | pinometostat 0.015 | [14] 0.003 | [15] 0.033

SDHAF3 (UniProt Q9NRP4)
inactive: erlotinib 0.003 | [1] 0.056 | [2] 0.024 | [3] -0.012 | [4] 0.033 | [5] 0.081 | [6] -0.129 | [7] -0.044 | [8] 0.053 | [9] 0 | IRAK-1-4 Inhibitor I 0.062 | ibrutinib -0.017 | [10] 0.003 | ralimetinib -0.063 | [11] -0.147 | [12] -0.214 | [13] -0.034 | pinometostat -0.008 | [14] -0.003 | [15] -0.048

SAP30BP (UniProt Q9UHR5)
inactive: erlotinib 0.065 | [1] 0.006 | [2] 0.023 | [3] -0.026 | [4] -0.019 | [5] 0.143 | [6] -0.037 | [7] -0.023 | [8] -0.025 | [9] -0.004 | IRAK-1-4 Inhibitor I 0.079 | ibrutinib -0.035 | [10] -0.039 | ralimetinib -0.024 | [11] -0.036 | [12] 0.053 | [13] 0.067 | pinometostat -0.032 | [14] 0.028 | [15] -0.073

SEC11C (UniProt Q9BY50)
inactive: erlotinib -0.004 | [1] -0.012 | [2] -0.046 | [3] -0.04 | [4] 0.082 | [5] 0.031 | [6] 0.023 | [7] -0.051 | [8] -0.016 | [9] -0.069 | IRAK-1-4 Inhibitor I 0.021 | ibrutinib 0.034 | [10] 0.004 | ralimetinib 0.013 | [11] -0.012 | [12] -0.1 | [13] 0.021 | pinometostat 0.084 | [14] -0.011 | [15] 0.015

SCAP (UniProt Q12770)
inactive: erlotinib -0.001 | [1] -0.005 | [2] 0.033 | [3] -0.006 | [4] -0.037 | [5] 0.041 | [6] 0.009 | [7] -0.04 | [8] 0.025 | [9] -0.003 | IRAK-1-4 Inhibitor I -0.004 | ibrutinib -0.106 | [10] -0.034 | ralimetinib -0.059 | [11] -0.062 | [12] -0.164 | [13] -0.029 | pinometostat -0.016 | [14] 0.022 | [15] 0.019

RRP15 (UniProt Q9Y3B9)
inactive: erlotinib -0.003 | [1] -0.031 | [2] -0.061 | [3] 0.025 | [4] -0.061 | [5] 0.024 | [6] -0.036 | [7] -0.043 | [8] -0.042 | [9] 0.061 | IRAK-1-4 Inhibitor I 0.049 | ibrutinib 0.001 | [10] 0.029 | ralimetinib 0.029 | [11] 0.067 | [12] 0.103 | [13] 0.032 | pinometostat -0.011 | [14] 0.039 | [15] -0.097

RYBP (UniProt Q8N488)
inactive: erlotinib 0.086 | [1] -0.079 | [2] 0.004 | [3] -0.045 | [4] -0.023 | [5] 0 | [6] -0.033 | [7] -0.087 | [8] 0.017 | [9] 0.035 | IRAK-1-4 Inhibitor I 0.047 | ibrutinib 0.033 | [10] 0 | ralimetinib -0.042 | [11] 0.105 | [12] 0.075 | [13] 0.051 | pinometostat -0.026 | [14] 0.05 | [15] -0.09

Copied from the entries so far (five entries):
SAP30BP (UniProt Q9UHR5)
inactive: erlotinib 0.065 | [1] 0.006 | [2] 0.023 | [3] -0.026 | [4] -0.019 | [5] 0.143 | [6] -0.037 | [7] -0.023 | [8] -0.025 | [9] -0.004 | IRAK-1-4 Inhibitor I 0.079 | ibrutinib -0.035 | [10] -0.039 | ralimetinib -0.024 | [11] -0.036 | [12] 0.053 | [13] 0.067 | pinometostat -0.032 | [14] 0.028 | [15] -0.073

SEC11C (UniProt Q9BY50)
inactive: erlotinib -0.004 | [1] -0.012 | [2] -0.046 | [3] -0.04 | [4] 0.082 | [5] 0.031 | [6] 0.023 | [7] -0.051 | [8] -0.016 | [9] -0.069 | IRAK-1-4 Inhibitor I 0.021 | ibrutinib 0.034 | [10] 0.004 | ralimetinib 0.013 | [11] -0.012 | [12] -0.1 | [13] 0.021 | pinometostat 0.084 | [14] -0.011 | [15] 0.015

SCAP (UniProt Q12770)
inactive: erlotinib -0.001 | [1] -0.005 | [2] 0.033 | [3] -0.006 | [4] -0.037 | [5] 0.041 | [6] 0.009 | [7] -0.04 | [8] 0.025 | [9] -0.003 | IRAK-1-4 Inhibitor I -0.004 | ibrutinib -0.106 | [10] -0.034 | ralimetinib -0.059 | [11] -0.062 | [12] -0.164 | [13] -0.029 | pinometostat -0.016 | [14] 0.022 | [15] 0.019

RRP15 (UniProt Q9Y3B9)
inactive: erlotinib -0.003 | [1] -0.031 | [2] -0.061 | [3] 0.025 | [4] -0.061 | [5] 0.024 | [6] -0.036 | [7] -0.043 | [8] -0.042 | [9] 0.061 | IRAK-1-4 Inhibitor I 0.049 | ibrutinib 0.001 | [10] 0.029 | ralimetinib 0.029 | [11] 0.067 | [12] 0.103 | [13] 0.032 | pinometostat -0.011 | [14] 0.039 | [15] -0.097

RYBP (UniProt Q8N488)
inactive: erlotinib 0.086 | [1] -0.079 | [2] 0.004 | [3] -0.045 | [4] -0.023 | [5] 0 | [6] -0.033 | [7] -0.087 | [8] 0.017 | [9] 0.035 | IRAK-1-4 Inhibitor I 0.047 | ibrutinib 0.033 | [10] 0 | ralimetinib -0.042 | [11] 0.105 | [12] 0.075 | [13] 0.051 | pinometostat -0.026 | [14] 0.05 | [15] -0.09

Next results

SDSL (UniProt Q96GA7)
inactive: erlotinib 0.016 | [1] 0.031 | [2] 0.054 | [3] 0.036 | [4] -0.06 | [5] 0.056 | [6] -0.052 | [7] -0.021 | [8] 0.018 | [9] 0.088 | IRAK-1-4 Inhibitor I 0.049 | ibrutinib 0.043 | [10] 0.013 | ralimetinib -0.08 | [11] -0.015 | [12] 0.046 | [13] 0.008 | pinometostat -0.045 | [14] 0.006 | [15] 0.053
